Measured values reported in publication PMC12624029.
Results are given in words; binding and its absence hold for the method and conditions named. Binding seen in cells or lysates may run through a third protein. Some binding calls cover weakened binding; strength is not graded here. One block for each binder: values may come before it.

Key:
[1] = molecular target: T1, Caspase-8 (mouse (endogenous in HT-22)), O89110; assay: co-IP; HT22 cells treated with 20 mg/mL TMAO for 16 h; RIPA lysate, 500 ug total protein with 2 ug rabbit anti-caspase-8 antibody overnight at 4 C, protein A/G magnetic beads, five washes with lysis buffer; immunoblot for CASP8, CASP1, ASC, GAPDH; details: remark: other sources report otherwise
T1 chain: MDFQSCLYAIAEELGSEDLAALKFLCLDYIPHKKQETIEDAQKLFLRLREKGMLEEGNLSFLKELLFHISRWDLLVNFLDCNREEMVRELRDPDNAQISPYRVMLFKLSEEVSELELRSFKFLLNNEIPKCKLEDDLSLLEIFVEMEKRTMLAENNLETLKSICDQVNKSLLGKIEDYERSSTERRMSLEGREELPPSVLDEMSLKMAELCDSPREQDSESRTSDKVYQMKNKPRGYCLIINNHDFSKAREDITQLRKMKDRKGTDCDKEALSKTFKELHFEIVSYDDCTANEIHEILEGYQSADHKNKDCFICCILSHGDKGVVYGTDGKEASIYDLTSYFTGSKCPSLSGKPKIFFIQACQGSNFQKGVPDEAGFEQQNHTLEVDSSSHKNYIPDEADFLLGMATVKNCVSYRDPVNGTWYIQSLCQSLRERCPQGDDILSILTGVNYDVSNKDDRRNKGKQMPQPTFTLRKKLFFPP

[2] = molecular target: T2, Caspase-8 (mouse (endogenous in HT-22)) (UniProt O89110); assay: co-IP; HT22 cells without TMAO treatment; RIPA lysate, 500 ug total protein with 2 ug rabbit anti-caspase-8 antibody overnight at 4 C, protein A/G magnetic beads, five washes with lysis buffer; immunoblot for CASP8, CASP1, ASC, GAPDH
T2 sequence: T1 chain

[3] = molecular target: T2, Caspase-8 (mouse (endogenous in HT-22)); assay: co-IP; HT22 cells treated with 20 mg/mL TMAO for 16 h; RIPA lysate, 500 ug total protein with 2 ug rabbit anti-caspase-8 antibody overnight at 4 C, protein A/G magnetic beads, five washes with lysis buffer; immunoblot for CASP8, CASP1, ASC, GAPDH

binding [1]: binds
B1: ASC, Q9EPB4 1-193 (protein)
chain: MGRARDAILDALENLSGDELKKFKMKLLTVQLREGYGRIPRGALLQMDAIDLTDKLVSYYLESYGLELTMTVLRDMGLQELAEQLQTTKEESGAVAAAASVPAQSTARTGHFVDQHRQALIARVTEVDGVLDALHGSVLTEGQYQAVRAETTSQDKMRKLFSFVPSWNLTCKDSLLQALKEIHPYLVMDLEQS

binding [3]: binds
B2: Caspase-1 (protein, UniProt P29452 1-402)
chain: MADKILRAKRKQFINSVSIGTINGLLDELLEKRVLNQEEMDKIKLANITAMDKARDLCDHVSKKGPQASQIFITYICNEDCYLAGILELQSAPSAETFVATEDSKGGHPSSSETKEEQNKEDGTFPGLTGTLKFCPLEKAQKLWKENPSEIYPIMNTTTRTRLALIICNTEFQHLSPRVGAQVDLREMKLLLEDLGYTVKVKENLTALEMVKEVKEFAACPEHKTSDSTFLVFMSHGIQEGICGTTYSNEVSDILKVDTIFQMMNTLKCPSLKDKPKVIIIQACRGEKQGVVLLKDSVRDSEEDFLTDAIFEDDGIKKAHIEKDFIAFCSSTPDNVSWRHPVRGSLFIESLIKHMKEYAWSCDLEDIFRKVRFSFEQPEFRLQMPTADRVTLTKRFYLFPGH
binding [2]: no binding (condition: cells without TMAO stimulation)
